# Data: PubChem BioAssay AID504834 (National Center for Advancing Translational Sciences (NCATS), 2011)
# Among all 320,000 compounds or so, about 22,000 (6.9%) were called active. Inconclusive results, whose numbers are uncertain, are shown with a selection of clear calls. Calls follow the shape of the dose curve; as a rule, active = well fitted inhibition curve with a large enough effect; inconclusive = small, poorly fitted or top-dose-only effect, or another doubt; inactive = no such curve, though single readings can be large or run the other way. Potencies of inconclusive entries are doubtful fits and often do not repeat.
# Experiment: Primary qHTS for delayed death inhibitors of the malarial parasite plastid, 96 hour incubation
# Conditions: P. falciparum luciferase reporter growth; series mostly up to 28.7 µM
# In short: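 Infected RBCs, 2% Hct / 0.05% parasitemia final; luciferase-reporter P. falciparum; cpd 96 h, 37 C, 5% CO2; luciferase detection reagent; luminescence.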
# % is scaled to controls: 0 for no effect and ±100 for the full control effect; potency is read from the fitted curve at half-maximal effect.
SMILES,Potency,"activity change, negative = inhibition"
CCOC(=O)N1CCN(C(=O)COc2ccccc2Cl)CC1,inactive,–
Cc1ccc(CN2C(=O)C(Cc3ccccc3)Nc3ncnc(N4CCN(c5ccccc5)CC4)c32)cc1 (configuration not stated),active: 4.65 µM,–
Cc1c(C(=O)Nc2ccc(-c3nnc4n3CCCCC4)cc2)oc2c1ccc1ccccc12,"inconclusive: 5.22 µM [inhibitor, partial curve]",–
O=C(COc1ccc2ccccc2c1)NNC(=O)c1ccc([N+](=O)[O-])cc1,"inconclusive: 2.62 µM [inhibitor, full curve]",–
COc1ccc(N2CC(C(=O)N[C@@H](CC(C)C)C(=O)NC3CCCC3)CC2=O)cc1 (some centres not stated),"inconclusive: 9.28 µM [inhibitor, single point]",–
CC(=O)Oc1ccc(CCC(C)OC(C)=O)cc1 (configuration not stated),inactive,–
CC12CN(S(=O)(=O)c3ccccc3)CC(C)(CN(S(=O)(=O)c3ccccc3)C1)C2,"inconclusive: 8.28 µM [inhibitor, partial curve, poor fit]",–
COc1ccc(S(=O)(=O)c2c(O)cc(C)c(NS(=O)(=O)c3ccccc3)c2C)cc1,"inconclusive: 18.5 µM [inhibitor, single point]",–
CCC(=O)Nc1cccc(C(=O)/C=C/c2ccc(F)cc2)c1,"inconclusive: 0.262 µM [inhibitor, full curve, poor fit]",–
Cc1cccc(OC(C)C(=O)Nc2cc(Cl)ccc2-n2cncn2)c1 (configuration not stated),"inconclusive: 11.7 µM [inhibitor, partial curve, poor fit]",–
Clc1ccc(-c2ccc(CNCc3ccccn3)o2)cc1,inactive,–
CCOC(=O)c1c(NC(=O)COC(=O)CCNS(=O)(=O)c2ccccc2)sc(C(=O)N(C)C)c1C,inactive,–
CCCCOc1cccc(C(=O)Nc2ccc(S(=O)(=O)Nc3nnc(CC)s3)cc2)c1,"inconclusive: 20.8 µM [inhibitor, partial curve, poor fit]",–
CC1CN2C(c3ccc(Cl)cc3)=CSC2=N1 (configuration not stated),"inconclusive: 13.1 µM [inhibitor, single point]",–
CCC(C)N1C(=O)C2C(C(=O)Nc3cccc(OC)c3)C3C=CC2(O3)C1C(=O)NC1CCCCC1C (configuration not stated),"inconclusive: 14.7 µM [inhibitor, single point]",–
CN(NC(=O)c1ccco1)c1nc2ccccc2nc1C(F)(F)F,"inconclusive: 18.5 µM [inhibitor, single point]",–
COc1ccc(OCC(=O)Nc2cccc3cccnc23)cc1,"inconclusive: 0.415 µM [inhibitor, full curve, poor fit]",–
Cc1sc(NC(=O)CN2CCCC2)nc1-c1ccc2c(c1)CCN2C(=O)c1cccc(F)c1,inactive,–
COC(=O)c1cc(C(=O)OCC(=O)c2ccc3c(c2)NC(=O)CO3)cc([N+](=O)[O-])c1,inactive,–
CC1(C)Cc2c(C#N)c(NCCc3ccccc3)nc(-c3ccco3)c2CO1,–,inactive: -0.591% [at 5.75 µM]
O=C(NCC(c1ccco1)N1CCCCC1)c1cccc(NS(=O)(=O)c2ccc(Br)cc2)c1 (configuration not stated),"inconclusive: 9.28 µM [inhibitor, single point]",–

SMILES,Potency,"activity change, negative = inhibition"
CCOC(=O)CSc1nnc2cc(C)c3ccccc3n12,"inconclusive: 14.7 µM [inhibitor, single point]",–
CCN(CC)C(=O)C(=O)c1cccn1-c1c(Cl)cccc1C#N,inactive,–
O=C(CN1CCN(Cc2ccccc2)C1=O)NCc1ccc(Cl)cc1,"inconclusive: 3.29 µM [inhibitor, partial curve, poor fit]",–
O=C(c1ccc(NS(=O)(=O)c2cccc([N+](=O)[O-])c2)cc1)N1CCN(C(=O)c2ccco2)CC1,"inconclusive: 18.5 µM [inhibitor, single point]",–
O=C(O)CC(Cc1ccccc1)(C(=O)O)c1ccccc1 (configuration not stated),"inconclusive: 18.5 µM [inhibitor, single point]",–
CC(=O)C1=C(C)NC(SCC(=O)c2ccc(C)cc2)=C(C#N)C1c1ccco1 (configuration not stated),active: 6.57 µM,–
CN(C(=O)CSc1nc(O)cc(=O)n1C1CCCC1)c1ccccc1,active: 1.65 µM,–
CC(C)N1CCN(Cc2cc(F)ccc2-n2cccn2)CC1CCO (configuration not stated),"inconclusive: 18.5 µM [inhibitor, single point]",–
O=C(CN1CCc2ccccc2C1)Nc1ccc(F)cc1F,"inconclusive: 18.5 µM [inhibitor, single point]",–
O=C(Cc1ccc(Cl)cc1)Nc1ccccc1Sc1ccccc1,"inconclusive: 18.5 µM [inhibitor, single point]",–
O=C(c1cccc2ccccc12)N1CCN(c2ccc([N+](=O)[O-])c(NCc3ccco3)c2)CC1,inactive,–
COc1cc(C(=O)NCCOC(=O)c2cccc(N(C)C)c2)cc(OC)c1OC,"inconclusive: 10.4 µM [inhibitor, partial curve]",–
CCOc1cc(/C=C2\SC(N3CCCCC3)=NC2=O)ccc1O,"inconclusive: 4.65 µM [inhibitor, partial curve]",–
CC(C)CC(=O)N1CCN(Cc2cccc(F)c2)CC1,"inconclusive: 2.62 µM [inhibitor, partial curve, poor fit]",–
CCN1C(=O)[C@H]2[C@@H](c3ccc(-c4cccc(Cl)c4)cc3)N3CCCC[C@@]3(C(=O)OC)[C@H]2C1=O,"inconclusive: 18.5 µM [inhibitor, single point]",–
CCc1cccc(N(C)C(N)=Nc2cccc3ccccc23)c1,active: 9.53 µM,–
COc1cccc(CNC(=O)CCC2CCCN(C/C=C/c3ccccc3OC)C2)c1 (configuration not stated),"inconclusive: 13.1 µM [inhibitor, single point]",–
Clc1ccccc1/C=C/c1ccnc2ccccc12,"inconclusive: 13.1 µM [inhibitor, single point]",–
CS(=O)(=O)Nc1ccc(C(=O)N2CCN(c3ccccc3F)CC2)cc1,"inconclusive: 18.5 µM [inhibitor, single point]",–
CC(C)Sc1cc(Cl)nc(NC(=O)Nc2ccccc2)n1,inactive,–
Cc1cc(OCC(=O)N(Cc2ccccc2)C2CCS(=O)(=O)C2)ccc1Cl (configuration not stated),"inconclusive: 14.7 µM [inhibitor, partial curve, poor fit]",–

# Shown as tab-separated lines: entries from further up
SMILES	Potency	activity change, negative = inhibition
COc1cc(C(=O)NCCOC(=O)c2cccc(N(C)C)c2)cc(OC)c1OC	inconclusive: 10.4 µM [inhibitor, partial curve]	–
CCOc1cc(/C=C2\SC(N3CCCCC3)=NC2=O)ccc1O	inconclusive: 4.65 µM [inhibitor, partial curve]	–
